The target of this assay is T1, GST-WNT5A (UniProt P41221).
T1 sequence: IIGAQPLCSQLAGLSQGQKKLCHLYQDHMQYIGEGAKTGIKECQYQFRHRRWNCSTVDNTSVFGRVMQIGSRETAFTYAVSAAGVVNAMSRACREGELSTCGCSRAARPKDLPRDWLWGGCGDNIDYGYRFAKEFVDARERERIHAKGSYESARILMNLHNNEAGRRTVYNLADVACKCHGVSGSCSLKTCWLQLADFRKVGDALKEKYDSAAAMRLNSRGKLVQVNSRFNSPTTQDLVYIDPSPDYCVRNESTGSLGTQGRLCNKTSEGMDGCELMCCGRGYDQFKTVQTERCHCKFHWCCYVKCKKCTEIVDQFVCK
The experiment in a line: pull-down; GST-WNT5A incubated with liver TIC lysate, GST pulldown, western blot with FZD6 antibody; only the target purified. Background: A western blot detects proteins with antibodies after separation by electrophoresis.

Results are given in words; binding and its absence hold for the method and conditions named. In cells and extracts the contact can be indirect. Some entries that bind do so weakly or less than the wild type. Sequences can lack the tags named with a protein.

B1: FZD6 (receptor, UniProt O60353 19-706)
chain: HSLFTCEPITVPRCMKMAYNMTFFPNLMGHYDQSIAAVEMEHFLPLANLECSPNIETFLCKAFVPTCIEQIHVVPPCRKLCEKVYSDCKKLIDTFGIRWPEELECDRLQYCDETVPVTFDPHTEFLGPQKKTEQVQRDIGFWCPRHLKTSGGQGYKFLGIDQCAPPCPNMYFKSDELEFAKSFIGTVSIFCLCATLFTFLTFLIDVRRFRYPERPIIYYSVCYSIVSLMYFIGFLLGDSTACNKADEKLELGDTVVLGSQNKACTVLFMLLYFFTMAGTVWWVILTITWFLAAGRKWSCEAIEQKAVWFHAVAWGTPGFLTVMLLAMNKVEGDNISGVCFVGLYDLDASRYFVLLPLCLCVFVGLSLLLAGIISLNHVRQVIQHDGRNQEKLKKFMIRIGVFSGLYLVPLVTLLGCYVYEQVNRITWEITWVSDHCRQYHIPCPYQAKAKARPELALFMIKYLMTLIVGISAVFWVGSKKTCTEWAGFFKRNRKRDPISESRRVLQESCEFFLKHNSKVKHKKKHYKPSSHKLKVISKSMGTSTGATANHGTSAVAITSHDYLGQETLTEIQTSPETSMREVKADGASTPRLREQDCGEPASPAASISRLSGEQVDGKGQAGSVSESARSEGRISPKSDITDTGLAQSNNLQVPSSSEPSSLKGSTSLLVHPVSGVRKEQGGGCHSDT
As for B1, the binding entry is “binds”.

Values taken from publication PMC5992127.
